Measured data: PubChem BioAssay AID602196 (INSERM, 2012)

Aim: 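Knock-downs that protect lung cancer cells from cisplatin or sensitise them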
Cell system: human A549 lung cancer cells
Reagent: siRNA pair against human genes
Time to read-out: 48 h transfection before cisplatin; time from cisplatin to read-out not stated
Treatment: cisplatin at a dose killing half of control-siRNA cells; exact dose and duration not given
Detection: 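Shift in cisplatin death relative to control siRNA, from -50 (all cells die) to +50 (no cells die); siRNAs harmful on their own scored 0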
Reading the numbers: two-siRNA summed score (-2 to +2): higher = both siRNAs protect from cisplatin killing; -2 means both sensitise; mean protection from cisplatin (shift in death): higher = protection from cisplatin killing
Rule for the call: 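siRNAs harmful alone (LDH or WST-1) get 0; others get +1 for less and -1 for more cisplatin killing; genes are active when the two siRNAs give the same sign, summing to ±2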
Meaning of the calls: active = both siRNAs shift cisplatin killing the same way; inactive = no consistent shift, or siRNA harmful alone
The whole screen tested about 23,000 reagents; below is a random part of them. Over the whole deposit, 455 (2%) are marked active. 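Active includes both protection and sensitisation; some change values fall well beyond the stated -50 to +50 range.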 A number with no mark means an inactive call. Not all columns of the deposit are shown. The record does not give: the amount of reagent.

no.	gene symbol	two-siRNA summed score (-2 to +2)	mean protection from cisplatin (shift in death) (%)
1	OR4F29	0	-3.5
2	RRP12	1	7.4
3	ZNF630	0	-8.1
4	MIIP	0	-4.6
5	LOC388709	1	11.1
6	AXIN1	0	15.2
7	TAF12	1	10.9
8	STAG3	1	10.8
9	LOC400607	0	-0.1
10	LOC442687	1	18
11	DNAJC1	0	2.8
12	TUBA3E	1	17.2
13	SRRM1	1	9.4
14	OSCAR	0	-5
15	GNRH2	1	14.5
16	IQCF2	-1	-6.2
17	ENPP1	0	-1.9
18	FBRS	0	-6.3
19	FMNL1	0	-6.1
20	GOLGIN-67	0	16.4
21	ANO2	0	0.1
22	PROKR1	0	4.5
23	RAI2	0	7.4
24	CLDN16	0	-3
25	TRIM23	1	5.1
26	ISLR	-1	-9.1
27	PGAP1	1	4.5
28	SIN3B	0	-2.2
29	TPSD1	0	9.8
30	LOC338829	0	3.8
31	KCNAB1	1	8
32	STX16	0	5.7
33	CHRNB4	0	-7.8
34	THEMIS2	0	4.7
35	SLC6A8	1	9.8
36	DLG3	-1	-0.7
37	FABP5	0	9.2
38	AMN	0	13.3
39	CSF3	0	2
40	NCF1	0	1.2
41	PTPN4	0	2.1
42	SLC5A9	1	7.2
43	TM2D2	0	11.9
44	IDNK	0	3.7
45	SLC34A3	0	14.2
46	PANK1	2 (active)	20.5
47	LOC440714	-1	-6.7
48	LOC400134	0	9.6
49	RTKN	0	-9.6
50	LOC107986845	1	13.3
51	LOC442203	0	23.8
52	HOXB5	0	13.3
53	CCDC148	0	12.5
54	ZNF701	-1	-6.9
55	CISD1	0	10
56	ARSD	1	14.1
57	LOC440692	0	12.4

In a second layout: 5 of the entries above
gene symbol,two-siRNA summed score (-2 to +2),mean protection from cisplatin (shift in death) (%)
PTPN4,0,2.1
SLC5A9,1,7.2
TM2D2,0,11.9
IDNK,0,3.7
SLC34A3,0,14.2
